Measured values from article PMC4460183, “Catalytic and hydrodynamic properties of styrene monooxygenases from Rhodococcus opacus 1CP are modulated by cofactor binding” (AMB Express, 2015).
No constants are given. Whether binding was seen depends on the method and setting.

Target: StyA styrene monooxygenase from Rhodococcus opacus 1CP (styABCD cluster) (Rhodococcus opacus 1CP)
Assay: condition: only with 12.7 µM FAD and 1 mM sodium dithionite (reduced FAD); SEC; analytical gel filtration, Superdex 200 HR 10/30, 22°C, 10 mM Tris-HCl pH 7.2, 500 mM NaCl; reduced holoenzyme, 12.7 µM FAD and 1 mM sodium dithionite, anaerobic buffer; both purified

B1: StyA styrene monooxygenase from Rhodococcus opacus 1CP (styABCD cluster) (enzyme, UniProt A0A076JVU4 1-426, looked up)
chain: MSKRIAIVGAGTAGLHLGLYLNEKGIDATIFTDRRPEEYANIRLLNTVAHHSVTIDREDALGIDHWPNDGYFGHYYYVGIPGMPIRSYGDLAKPSRAVDYRILQPQLMRDFEERGGKIEYRPIRVEDLTVLSDDYDLVVIGTGKGGLGTLFARDEQSSPFTEPQRQLCVGIFKGIAPAETRAVTFCISPGAGEMIEIPTVTFSGDATALVFENHIGSDLEVLAHTRYEDDPRAFLDLMIEKLKQHYPITAERLDEKEFDVANSHLDILQGGVTPTVRHGHVKLDNGKLAVLLGDAHATVDPVLGQGGNMASYAAHVLGEEIAGNEVYDELFCERVDARRAGRVLGATRWTNFMLSNLKELPNHFVEFLGRVMMDRQLADRFTDNFNYPEKQWDIFSSPENMVAWIEANETGAEETERPFAQTGAQS
notes: StyA of the styABCD cluster, Rhodococcus opacus 1CP, 427 amino acid residues, calculated mass 46,580 Da; amplified from genomic DNA with printed primers that hold the start codon (NdeI CATATG) and the stop codon (TCA in the reverse primer); Apparent subunit mass 50 kDa including the His-tag (SDS-PAGE); also called holo-StyA; source: E. coli BL21, purified (HisTrap FF IMAC)
binding: no binding
